No constants are given. Whether binding was seen depends on the method and setting. For part of these data: In cells and extracts the contact can be indirect. For part of these data: A result given as binding can be weak or reduced; the word gives no strength. Tags and fused reporters may be left off the sequences shown.
How the values were obtained:
[1] = molecular target: SCMV-BJ VPg-YFP^N (BiFC fusion, pUC-SPYNE) (Sugarcane mosaic virus, Beijing isolate (SCMV-BJ)); assay: split reporter; BiFC: YFP^N and YFP^C fusions co-transfected into maize protoplasts; YFP fluorescence captured at 12-18 h post transfection by confocal microscopy
[2] = molecular target: maize Elongin C (ZmElc), Gal4 DNA-binding domain fusion (pGBKT7-ZmELC) (maize (Zea mays)); assay: two-hybrid; pGBKT7 and pGADT7 constructs co-transformed into yeast strain AH109; growth on SD/-Ade/-His/-Leu/-Trp at 30°C for 3-4 d
[3] = molecular target: YFP^C-ZmElc (BiFC fusion, pGD-YFP^C-ZmELC) (maize (Zea mays)); assay: split reporter; BiFC: YFP^N and YFP^C fusions co-transfected into maize protoplasts; YFP fluorescence captured at 12-18 h post transfection by confocal microscopy

B1: ZmeIF4E-YFP^C (BiFC fusion) (protein, UniProt O81481 1-218)
chain: MAEETDTRPASAGSRGRPAPEDDDREEGEITDLACAPSPPATHPLEHSWTFWFDNPQSKSKQAAWGSSIRPIHTFSTVEEFWGLYNNINHPSKLIVGADFHCFKNKIEPKWEDPICANGGKWTISCGRGKSDTFWLHTLLAMIGEQFDYGDEICGAVVSVRGKQERIAIWTKNAANEAAQVSIGKQWKELLDYKDSIGFIVHDDAKKMDKGLKNRYTV
- binding [1]: binds

B2: maize eukaryotic translation initiation factor 4E (ZmeIF4E), Gal4 activation domain fusion (pGADT7-ZmeIF4E) (protein, UniProt O81481 1-218)
chain: MAEETDTRPASAGSRGRPAPEDDDREEGEITDLACAPSPPATHPLEHSWTFWFDNPQSKSKQAAWGSSIRPIHTFSTVEEFWGLYNNINHPSKLIVGADFHCFKNKIEPKWEDPICANGGKWTISCGRGKSDTFWLHTLLAMIGEQFDYGDEICGAVVSVRGKQERIAIWTKNAANEAAQVSIGKQWKELLDYKDSIGFIVHDDAKKMDKGLKNRYTV
- binding [2]: no binding

B3: ZmeIF4E-YFP^N (BiFC fusion) (protein, UniProt O81481 1-218)
chain: MAEETDTRPASAGSRGRPAPEDDDREEGEITDLACAPSPPATHPLEHSWTFWFDNPQSKSKQAAWGSSIRPIHTFSTVEEFWGLYNNINHPSKLIVGADFHCFKNKIEPKWEDPICANGGKWTISCGRGKSDTFWLHTLLAMIGEQFDYGDEICGAVVSVRGKQERIAIWTKNAANEAAQVSIGKQWKELLDYKDSIGFIVHDDAKKMDKGLKNRYTV
- binding [3]: no binding

Source: PMC4143955
